# Source: PubChem BioAssay AID1273 (Columbia University Molecular Screening Center, 2008)
# The other results are listed elsewhere or left out. These are further read-outs of the screen, such as a control signal, another cell line or another target. No call is given for them. The list favours compounds with an active or inconclusive main result.
# Assay: inhibitors of insulin promoter-driven GFP, primary screen, imaging, TRM-6 cells (human fetal islet line), eGFP reporter, cell count (AID 1273;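 note: cells exposed to compound for 48 h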)
# Settings: measured here: cell count, toxicity, at 2 µM, reporter expression induced with tamoxifen
row,Compound,normalized cell count [%]
1,c1ccc(-c2nnc(CN3CCC4(CC3)OCCO4)o2)cc1,111
2,COC(=O)c1ccccc1N1C(=O)C2C(C1=O)[C@H]1C=C[C@@H]2C1 (stereo partly specified),77.6
3,COc1ccc(C)cc1S(=O)(=O)N1CCCC(C(=O)NCC2CCCO2)C1 (stereo unspecified),96.6
4,CCC(c1nc2ccccc2c(=O)n1CCN1CCOCC1)N1C(=O)c2ccccc2C1=O (stereo unspecified),34.9
5,c1ccc(OCCOCCSc2ncccn2)cc1,121
6,O=C(O)CCC(=O)Nc1ccc(C(=O)OC2CCCCC2)cc1,118
7,Cc1csc(=N)n1-c1ccc(Cl)cc1,94
8,c1csc(C2=NNC(=NC3CCCCC3)SC2)c1,48.1
9,CCN(CC)C(=O)C(=O)c1cccn1-c1ccccc1C#N,30.4
10,Cc1cc(C)c(S(C)(=O)=O)c(N(C)N)n1,67.3
11,C=CCn1c2ccccc2n2nc(C)c(=O)nc12,84.8
12,CCCCc1nnc(NC(=O)C2CCCO2)s1 (stereo unspecified),117
13,CCOC(=O)c1cc(=O)n2nc(-c3ccccc3F)nc2s1,82.1
14,CCn1c(O)c(/C=N/N=C/c2ccccc2)c2ccc(C3=NNC(=O)CC3)cc21,103
15,C=CCSc1nc(NC)c2sccc2n1,150
16,CN(CCc1ccccn1)c1ncnc2[nH]ncc12,78
17,CCOC(=O)c1[nH]c(C)c(C(=O)c2cc(F)ccc2F)c1C,14.8
18,Cc1snc(S(=O)(=O)/C(C#N)=N/Nc2ccc(C(F)(F)F)cc2)c1C#N,61.5
19,O=C(NCc1ccccc1Cl)C1CCN(C(=O)c2sccc2-n2cccc2)CC1,53.4
20,Cc1ccc(S(=O)(=O)n2c3ccc(Cl)cc3c3nc(C)sc32)cc1,154
21,Cc1nn2c(Nc3ccccc3)c3c(nc2c1-c1ccccc1)CCC3,224
22,Nc1nc(SCC(=O)NC2CCCc3ccccc32)n[nH]1 (stereo unspecified),152
23,CCc1nnc(SCC(=O)Nc2ccc3c(c2)OCO3)o1,72.4
24,Cc1nn(-c2ccccc2)c(Cl)c1/C=N/Nc1nc2ccccc2n1C,128

row,Compound,normalized cell count [%]
1,Cc1noc(N)c1C(=O)Nc1ccc(F)c(Cl)c1,78
2,CCCCOC(=O)CSc1n[nH]c(=O)[nH]c1=O,80
3,COc1ccc2cc3[n+](cc2c1OC)CCc1cc2c(cc1-3)OCO2,129
4,O=C(NC1(C(F)(F)F)OCCO1)c1ccc(F)cc1,155
5,Cc1ccc(C(=O)C2=C(O)C(=O)N(c3ncccn3)C2c2ccc(Cl)cc2)o1 (stereo unspecified),122
6,CCc1nn(-c2ccccc2)c(N)c1C#N,162
7,O=C(Nc1nc(-c2nc3ccccc3s2)cs1)c1ccco1,105
8,Cc1cc(C)c(OCC(=O)Nc2ccc(NC(=O)c3ccco3)cc2)c([N+](=O)[O-])c1,76.3
9,CCNc1nc(Oc2ccc(=O)[nH]n2)nc(N2CCOCC2)n1,97.7
10,CNC(=O)Nc1cccc(C(F)(F)F)c1,130
11,Cc1ccc2c(n1)CC(C)(C)C/C2=N\O,148
12,O=C(NCCc1ccccc1)NC1CCCCC1,146
13,Cc1nn(-c2ccccc2)c(C)c1C(=O)OCC(=O)N1CC(=O)Nc2ccccc21,85.6
14,COc1ccc(S(=O)(=O)N2CCc3ccccc32)cc1C(=O)OCc1nnc(-c2ccccc2)o1,131
15,O=C1CCCN1CCCNc1ncnc2c1[nH]c1ccc(Cl)cc12,112
16,COC(=O)c1ccccc1NC(=O)C/C(C)=N/NC(=O)CC#N,101
17,Cc1ccc(S(=O)(=O)N(C)CC(=O)Nc2cccc(C)n2)cc1,38.1
18,COc1ccc(CCNC(=O)CCc2ccc(S(=O)(=O)NC(C)C)cc2)cc1,46.7
19,Cc1oc(-c2ccccc2F)nc1CN1CCC(C(=O)NC2CCCc3ccccc32)CC1 (stereo unspecified),49.9
20,N#Cc1c(NC(=O)CCn2cnc3ccccc3c2=O)oc(-c2ccccc2)c1-c1ccccc1,50.9
21,Cc1ccc2c(c1)N(CC(=O)NC1CCCc3ccccc31)C(=O)CO2 (stereo unspecified),104
22,CCc1nnc(NC(=O)CSc2nc(C)c3c(c2C#N)CCCC3)s1,84.9
23,Cc1ccc2nc(NC(=O)CN(C)S(=O)(=O)c3ccc(Br)s3)sc2c1,69.3
24,C/C(Cl)=C\Cn1c(=O)c2c(nc3n2CCS3)n(C)c1=O,90.5

# As entered above:
# In normalized cell count [%], O=C(NCCc1ccccc1)NC1CCCCC1 shows 146
# In normalized cell count [%], C/C(Cl)=C\Cn1c(=O)c2c(nc3n2CCS3)n(C)c1=O shows 90.5

# The list goes on.

row,Compound,normalized cell count [%]
1,CCc1nc(Nc2ccc3c(c2)OCCO3)c2oc3ccccc3c2n1,85.4
2,O=C(NCc1cccs1)C12CC3CC(CC(C3)C1)C2,79.1
3,O=C(O)c1ccc2c(c1)C(=O)N(C(Cc1ccc(O)cc1)C(=O)O)C2=O (stereo unspecified),157
4,CCCCN=c1sc(C(=O)OC)cc(=O)n1CCCC,171
5,O=C(Nc1ccc2c(c1)CCC2)C1CCCO1 (stereo unspecified),110
6,CCCc1cc(-c2n[nH]c(=S)n2CC)cs1,110
7,C=CCNc1nc(SCC=C)nc2ccsc12,111
8,COc1cccc(-c2ccc(SCC(=O)c3ccccc3)nn2)c1,75.8
9,COC(=O)c1c(NC(=O)CN2CCC3(O)CCCCC3C2c2cc(OC)ccc2OC)sc(C)c1C (stereo unspecified),122
10,CCn1c(=O)n(-c2ccc(Cl)cc2)c(=O)c2c3c(sc21)COC(C)(C)C3,65.7
11,O=C(CSCc1ccc(Cl)cc1)Nc1cccc(C(=O)Nc2ccccc2C(=O)O)c1,153
12,CCCCNC(=O)CCc1nc2cccnc2n1Cc1ccc(OC)cc1,83.8
13,CCCCN(CCCC)C(=O)C[n+]1cccc(/C=N/O)c1,120
14,O=C(CCC(=O)NNC(=O)Cc1ccccc1)NCc1ccccc1,115
15,Cc1cc(=O)oc2cc(OCC(=O)OCC(=O)Nc3ccccc3C(C)C)ccc12,113
16,Cc1ccc(/C=C/C(=O)NCc2ccccn2)o1,94.7
17,CCc1nc2cc([N+](=O)[O-])c([N+](=O)[O-])cc2[nH]1,137
18,COc1ccc(-c2cn[nH]c2N)c(OC)c1,84.8
19,Cc1cc(C)cc(OCC(=O)N2N=C(C(F)(F)F)CC2(O)C(C)(C)C)c1 (stereo unspecified),46.6
20,O=C(Nc1nnc(-c2cccs2)s1)C1CC1,171
21,CC(C)CSc1nsc(N)n1,81.4
22,Cc1cc(N)n2ncc(-c3ccc(F)cc3)c2n1,178
23,COc1ccc(CN(C2CCCC2)S(=O)(=O)c2ccc(-n3cnnn3)cc2)cc1,104
24,O=C(NCCSc1ccccc1)c1cncc(Br)c1,134

row,Compound,normalized cell count [%]
1,CCCC12CN3CCN(CC(C3)/C1=N\NC(=O)Nc1ccccc1)C2,0.44
2,Cc1c(NC(=O)c2cnn3cccnc23)c(=O)n(-c2ccccc2)n1C,114
3,O=C(O)[C@H]1CCCC[C@H]1C(=O)NCCNC(=O)[C@@H]1CCCC[C@@H]1C(=O)O,17.4
4,COc1ccc(C(C)=O)cc1CSc1nc2cc(Cl)ccc2o1,94.6
5,CCCNC(=O)OCCC12CC3CC(CC(C3)C1)C2,115
6,O=C(Nc1cccc(F)c1)c1ccc(-c2ccccc2Cl)o1,104
7,O=C(Cc1c2ccccc2nc2ccccc12)c1ccccc1,137
8,CCOC(=O)c1cnc2c(ccc3ccccc32)c1NCCO,125
9,N#Cc1ccsc1NC(=O)COc1ccc(-c2nnco2)cc1,97
10,COc1ccc(NC(=O)c2cccnc2Nc2ccc(OC)cc2)cc1,70.7
11,COc1cc(C(=O)Nc2cccc(-c3nc4cc(C)ccc4o3)c2)cc(OC)c1OC,117
12,CCCCCn1nc(C)c(/C=N/NC(=O)c2ccoc2C)c1C,83.5
13,CCN(CC)C(=O)Nc1ccc(C(=O)OC)cc1,234
14,COCCN1C=C(C(=O)OC)C(c2ccc(OC)c(OC)c2)C(C(=O)OC)=C1,73.8
15,C/C(=N\Nc1cc(C(F)(F)F)ccc1Cl)c1ccccc1O,169
16,Cc1ccccc1C(=O)N1CCN(c2ccc(NC(=O)c3ccco3)cc2Cl)CC1,124
17,COc1ccccc1C(=O)Oc1cc(N)n(S(=O)(=O)c2ccc(C)cc2)n1,81.3
18,CC(NC(=O)c1ccccc1)c1ccc(Br)cc1 (stereo unspecified),45.6
19,COc1ccc(CCNc2oc(Cc3cccc4ccccc34)nc2C#N)cc1OC,28.7
20,CCN(CC)CCCNC(=O)c1nn(-c2ccc(OC)cc2OC)c(=O)c2ccccc12,61.2
21,COC(=O)Cc1[nH]n(-c2nc3ccccc3s2)c(=O)c1C(C)=Nc1ccc(C)cc1,126
22,CC(C)(C)NC(=O)NC(=O)CN1CCN(c2ncc(C(F)(F)F)cc2Cl)CC1,101
23,CCCCSc1ncc(C(=O)OCC)c(N)n1,160
24,O=C1NC2=C(CCc3ccccc32)C(c2ccccc2)N1 (stereo unspecified),104

row,Compound,normalized cell count [%]
1,O=C(Cn1nc(-c2ccccc2)c2ccccc2c1=O)Nc1cccnc1,61.3
2,CC(Sc1nnc(-c2ccc(O)cc2)o1)C(=O)Nc1cccc2ccccc12 (stereo unspecified),30.9
3,C(=Nc1ccc(Nc2ccccc2)cc1)c1ccc2ccccc2c1,70.8
4,CCCOc1ccc(C2/C(=C(\O)c3c(C)[nH]c(C(=O)OC)c3C)C(=O)C(=O)N2CCN(C)C)cc1 (stereo unspecified),59.6
5,COc1ccccc1-c1nc(C#N)c(N2CCN(C(c3ccccc3)c3ccccc3)CC2)o1,70.9
6,COc1ccc(CCNC(=O)CSc2ncn[nH]2)cc1,33.5
7,Cc1ccc(S(=O)(=O)N(CC(=O)O)c2ccc(Cl)c(C(F)(F)F)c2)cc1,69.6
8,COc1cc2c(cc1OC)C(C)N(C(C)=O)CC2 (stereo unspecified),37.3
9,O=C(Nc1ccccc1)N1CC=C(c2ccc(F)cc2)CC1,138
10,COc1cc(C(=O)c2ccccc2)c(OC)cc1C(=O)Nc1ccc(O)cc1,104
11,CCn1c(C)nc2cc(C(=O)N/N=C/c3ccc(O)cc3)ccc21,53
12,COc1cccc(-n2nnnc2SCC(=O)NC2CCCC2)c1,100
13,Cc1cc(C)nc(N2CCCC(C(=O)NCCc3ccc(F)cc3)C2)n1 (stereo unspecified),67.5
14,CCCc1c2ccccc2nc2ccccc12,122
15,CCOC(=O)COn1c(=O)c[n+]([O-])c2ccccc21,24
16,O=C(OCCCCN1C(=O)c2ccccc2C1=O)c1ccc(Br)o1,101
17,CCSc1nnc(NC(=O)C(C)(C)C)s1,117
18,CNC(=O)CN(C#N)c1nc(N(C)C)nc(N(C)C)n1,86
19,COc1cc(/C=C\C(=O)NCc2ccc3[nH]c(C)cc3c2)cc(OC)c1OC,115
20,O=C(O)c1cnc2ccccc2n1,53.5

# Pulled one by one from above, three records:
row,Compound,normalized cell count [%]
2,CC(Sc1nnc(-c2ccc(O)cc2)o1)C(=O)Nc1cccc2ccccc12 (stereo unspecified),30.9
18,CNC(=O)CN(C#N)c1nc(N(C)C)nc(N(C)C)n1,86
13,Cc1cc(C)nc(N2CCCC(C(=O)NCCc3ccc(F)cc3)C2)n1 (stereo unspecified),67.5
